PubChem BioAssay AID1224830 | NIAID | 2016
Shown is an unselected part of about 18,000 reagents tested. In the full data, about 2,900 (16%) are marked active. 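Calls are made per well; low scores hint the gene aids the LPS response, high scores that it dampens it.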 Repeated entries: four replicate wells of each siRNA pool. No sequences are given here.

- Assay: 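Genes whose knock-down alters the TNF-alpha reporter response to LPS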 (primary screen)
- Cells: human THP-1 monocytic leukaemia cells, TNF dual-luciferase reporter clone, PMA-differentiated to macrophage-like cells
- Reagents: siRNA pool against human genes, 50 nM
- Duration: LPS for 4 h, given about 3 days after siRNA transfection
- Conditions: bacterial LPS (TLR4 ligand), 10 ng/ml
- Detection: 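Ratio of firefly to renilla light, scaled to the plate median and expressed as a robust z-score per replicate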
- Direction: TNF reporter robust z-score: higher = stronger TNF reporter response to LPS
- Rule for the call: 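a well is active when its z-score exceeds 2.8 or falls below -1.5; control wells carry no call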

{"gene knocked down":"PTCHD1","TNF reporter robust z-score":-0.16,"Call":"inactive"}
{"gene knocked down":"PTCHD1","TNF reporter robust z-score":0.28,"Call":"inactive"}
{"gene knocked down":"PTCHD1","TNF reporter robust z-score":-0.28,"Call":"inactive"}
{"gene knocked down":"PTCHD1","TNF reporter robust z-score":0.06,"Call":"inactive"}
{"gene knocked down":"MRPL21","TNF reporter robust z-score":-0.16,"Call":"inactive"}
{"gene knocked down":"MRPL21","TNF reporter robust z-score":0.35,"Call":"inactive"}
{"gene knocked down":"MRPL21","TNF reporter robust z-score":-0.06,"Call":"inactive"}
{"gene knocked down":"MRPL21","TNF reporter robust z-score":0.17,"Call":"inactive"}
{"gene knocked down":"MRGPRX4","TNF reporter robust z-score":-0.99,"Call":"inactive"}
{"gene knocked down":"MRGPRX4","TNF reporter robust z-score":-0.11,"Call":"inactive"}
{"gene knocked down":"MRGPRX4","TNF reporter robust z-score":0.02,"Call":"inactive"}
{"gene knocked down":"MRGPRX4","TNF reporter robust z-score":0,"Call":"inactive"}
{"gene knocked down":"ADSL","TNF reporter robust z-score":0.01,"Call":"inactive"}
{"gene knocked down":"ADSL","TNF reporter robust z-score":-0.41,"Call":"inactive"}
{"gene knocked down":"ADSL","TNF reporter robust z-score":0.03,"Call":"inactive"}
{"gene knocked down":"ADSL","TNF reporter robust z-score":0.82,"Call":"inactive"}
{"gene knocked down":"RAB17","TNF reporter robust z-score":-0.87,"Call":"inactive"}
{"gene knocked down":"RAB17","TNF reporter robust z-score":-0.27,"Call":"inactive"}
{"gene knocked down":"RAB17","TNF reporter robust z-score":-0.86,"Call":"inactive"}
{"gene knocked down":"RAB17","TNF reporter robust z-score":-0.36,"Call":"inactive"}

Copied from the listing, 3 entries:
{"gene knocked down":"MRGPRX4","TNF reporter robust z-score":0,"Call":"inactive"}
{"gene knocked down":"ADSL","TNF reporter robust z-score":0.01,"Call":"inactive"}
{"gene knocked down":"ADSL","TNF reporter robust z-score":-0.41,"Call":"inactive"}
